## Percent effect of library compounds

Sequences of proteins named here, by UniProt entry; tags and fusion partners are left off. Residues count along the entry.
UniProt Q4DA54, 1-478: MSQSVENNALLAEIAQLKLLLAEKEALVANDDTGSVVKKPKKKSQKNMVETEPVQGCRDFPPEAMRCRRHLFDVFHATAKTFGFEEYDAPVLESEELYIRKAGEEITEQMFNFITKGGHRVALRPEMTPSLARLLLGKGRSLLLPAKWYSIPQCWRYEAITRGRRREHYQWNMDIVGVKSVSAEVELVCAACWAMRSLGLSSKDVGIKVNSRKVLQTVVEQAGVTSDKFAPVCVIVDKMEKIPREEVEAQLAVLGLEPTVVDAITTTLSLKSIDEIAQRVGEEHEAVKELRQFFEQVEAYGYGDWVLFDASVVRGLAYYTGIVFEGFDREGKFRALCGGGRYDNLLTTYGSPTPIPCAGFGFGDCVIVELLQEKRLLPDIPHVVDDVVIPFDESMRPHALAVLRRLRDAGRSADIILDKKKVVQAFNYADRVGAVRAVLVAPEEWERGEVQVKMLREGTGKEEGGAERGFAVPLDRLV

Toxoplasma: 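Assay of Toxoplasma gondii numbers, read through their beta-galactosidase reporter with a colour substrate. Compounds at 10 µM. The record gives no direction; the compounds picked for IC50 retests had high values, so higher reads as fewer parasites. About 67,000 compounds were tested under these conditions; 0.38% (about 260) showed 50% or more at least once.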
TcHisRS: 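Histidine-tRNA ligase, Trypanosoma cruzi CL Brener (UniProt Q4DA54). Enzyme assay of histidyl-tRNA synthetase; the read-out is not stated. Compounds at 30 µM. Direction is inferred from retests: higher values go with stronger inhibition. About 69,000 compounds were tested under these conditions; 0.045% (about 31) showed 50% or more at least once.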

Results are given as percent effect. The controls that fix the scale are not given in the record; negative values are as filed. This is an unselected part of the compounds tested. A dash means the value is not listed here; it may have been measured.

| structure | Toxoplasma | TcHisRS |
|---|---|---|
| `OCC1(Cc2ccccc2F)CCCN(c2ccc3ccccc3n2)C1` (stereo not drawn) | 2.703 | 12 |
| `[H][C@@]12CCN(Cc3nc(C)cs3)C[C@@]1([H])O[C@H](c1nc(C)no1)C2` | 17.6 | - |
| `Cc1ccc(C)n1-c1c(C(=O)NCC(C)Cn2cccn2)cnn1C` (stereo not drawn) | 1.252 | 6.098 |
| `CC(C)c1noc(CCC(=O)NC2CCS(=O)(=O)C2)n1` (stereo not drawn) | -12.29 | 8.646 |
| `CCc1cc(=O)n(CC(=O)N2CCCC2)c(-c2ccccc2)n1` | -63.34 | 5.804 |
| `Cc1ccc(N(CCC#N)C(=O)CN2CCCC2c2ccsc2)cc1` (stereo not drawn) | -10.37 | 13.7 |
| `Cc1cc(C)n(CC2CCCN2C(=O)c2cn[nH]c2C)n1` (stereo not drawn) | 7.622 | 6.706 |
| `O=C(O)C(F)(F)F.[H][C@]12CN(Cc3cccc(Cl)c3)C[C@@]1([H])OCCN(C(C)=O)C2` | -11.95 | - |
| `CCCn1cc(CN2CCCC2c2cccc(-n3ccnc3)n2)cn1` (stereo not drawn) | -3.032 | 8.955 |
| `Cc1nc(CN2CCO[C@@H]3CN(C(=O)NC(C)C)CC[C@@H]3C2)cs1` | - | 3.825 |
| `Cc1nc(C2CN(Cc3ccccc3C)CCO2)no1` (stereo not drawn) | 15.09 | 3.077 |
| `Cc1csc(C2CCCN(C(=O)c3c(C)nn4cccnc34)C2)n1` (stereo not drawn) | -10.11 | 5.187 |
| `CN1CCN(Cc2nnc(C3CCN(C(CO)CO)CC3)n2C)CC1` | -22.76 | 13.41 |
| `O=C(CNC(=O)C1CC1)NCC(F)(F)F` | 12.18 | 4.712 |
| `O=C(O)C(F)(F)F.[H][C@@]12CN(C(=O)c3cnccn3)C[C@]1([H])C(=O)N(Cc1cccc(C)n1)C2` | -13.87 | - |
| `Nc1nc2c(c(NCc3ccc(C(=O)N4CCCC4)cc3)n1)CCCC2` | 29.89 | 13.81 |
| `COCCN1CCC2(CC1)C(=O)Nc1ccc(C(=O)NC(C)C)cc12` | - | 3.738 |
| `COCCN1C[C@H]2[C@@H](C1)N(C(=O)CCc1ccccc1)CC[C@H]2OC` | - | 8.8 |
| `Cc1cc(=O)n(C)cc1NC(=O)CC1CCC1` | 10.17 | 0 |
| `CC(=O)N1CCCC2(CN(Cc3ccc(F)cc3)CCO2)C1.O=C(O)C(F)(F)F` (stereo not drawn) | 4 | - |
| `Cn1cc(C[C@H]2[C@H](N3CCOCC3)CCN2C(=O)c2ccoc2)cn1` | 7.134 | 0 |
| `CN(Cc1ccc(Cl)s1)C(=O)CN(C)C1CCc2ccccc21` (stereo not drawn) | 0.8403 | 2.521 |
| `Cc1nc(C2CCCN(C(=O)CCn3ccccc3=O)C2)no1` (stereo not drawn) | 5.775 | 2.924 |
| `CCNc1ccnc(N2CCN(Cc3ncccc3C)CC2)n1` | 2.663 | 9.239 |
| `COC(=O)CCNC(=O)c1ccoc1CN1c2ccccc2CC1C` (stereo not drawn) | -30.4 | 6.612 |
| `NC(=O)COc1ccc(CN2CCC(O)(CN3CCCCC3)C2)cc1Cl` (stereo not drawn) | -2.331 | 9.091 |
| `Cc1nc2cc(C(=O)N3C[C@@H](NS(C)(=O)=O)[C@H](C(C)C)C3)ccc2[nH]1` | 0.5821 | 1.266 |
| `Cc1ccc(OCCN(C)C2CCOC2=O)cc1` (stereo not drawn) | 0.06892 | 4.762 |
| `CNS(=O)(=O)c1ccc(F)c(C(=O)NCc2ccnc(OC)c2)c1` | 9.879 | -3.097 |
| `COCCNC(=O)Cn1cc(OCc2ccccc2)c(=O)cc1CO` | -4.085 | 0.9901 |
| `N#Cc1cccnc1N1CCCN(C(=O)CCn2cccn2)CC1` | -16.63 | 3.725 |
| `CCN1C(=O)CCC12CCCN(Cc1nccs1)C2` (stereo not drawn) | - | -2.041 |
| `O=C(NCc1ccccc1)N1CCn2c(Cn3cccn3)cnc2C1` | 1.437 | 4.926 |
| `COCCc1noc(CN2CCN(c3ccc(OC)cc3)C(=O)C2C)n1` (stereo not drawn) | -2.843 | 2.488 |
| `Cn1ccnc1CN1CCN(CC(=O)NCc2cccs2)CC1` | 9.174 | -0.5814 |
| `CCC(O)CN1CCN(C(=O)Cc2ccc(C)nc2)CC1` (stereo not drawn) | -0.8457 | 5.917 |
| `COc1cccc(Cl)c1C(C(=O)O)N(C)Cc1nnc(C)o1` (stereo not drawn) | - | 8.046 |
| `Cc1nc(C2CCCNC2)cc(N(Cc2c(C)nn(C)c2C)C2CC2)n1` (stereo not drawn) | 1.748 | 5.319 |
| `CNS(=O)(=O)CC(=O)N1CCCc2cc(C(C)C)ccc21` | 2.267 | 3.067 |
| `COc1cccc2c1OCC(C(=O)N1CCC(N3CCOC3=O)CC1)C2` (stereo not drawn) | -9.62 | 4.959 |
| `Cc1nc(CC(=O)N2CCCC(n3ccnc3C(C)C)C2)cs1` (stereo not drawn) | -19.47 | 4.046 |
| `CN1C[C@H](c2ccccc2)[C@H]2CN(C(=O)Cc3ccc(O)cc3)CC[C@H]21` | - | 2.26 |
| `Fc1ccc(C2(CNC3=NCCN3)CCCC2)cc1` | - | 4.255 |
| `CCS(=O)(=O)CCN(CC1CCCO1)C1CCCC1` (stereo not drawn) | 1.957 | 2.941 |
| `CN1CCOC[C@H]1c1nc(C(C)(C)C)c[nH]1` | -2.811 | -2.174 |
| `O=C(c1ccco1)N1CCCC1C1CCN(Cc2ccccc2)CC1` (stereo not drawn) | -0.2514 | 5.435 |
| `CC(C)[C@H]1COC(=O)N1CC(=O)N1CCN(C(=O)c2ccco2)CC1` | -12.05 | -11.59 |
| `CN(Cc1n[nH]c2c1CCC2)c1nc(C2CCCC2)nc2c1CNC2` | -30.42 | 26.4 |
| `O=C(Nc1ccc(F)c(F)c1)N1CCC2(CCC(=O)N(C3CC3)C2)CC1` | 6.181 | 4.972 |
| `COc1cc(C2CC(=O)Nc3c2nc2n3CCCC2)cc2c1OCO2` (stereo not drawn) | 11.95 | 5.83 |
| `Cc1cccc(OC2CCN(c3nc(N)nc4[nH]cnc34)CC2)c1` | 7.333 | 16.3 |
| `CC(C)CN(Cc1ccccn1)Cc1ccccc1C(=O)O` | 2.714 | 1.087 |
| `CC1CN(C(=O)Nc2cc(C(F)(F)F)c[nH]c2=O)CC(C)(C)O1` (stereo not drawn) | 5.082 | 7.071 |
| `O=C(c1ccnnc1)N1CC[C@@H](O)[C@@H]1Cc1ccccc1` | -0.9938 | 5.288 |
| `CN(C)CCNC(=O)c1ccc(OC2CCN(S(C)(=O)=O)CC2)c(Cl)c1` | 1.861 | 0.8475 |
| `Cc1nsc(C(=O)NCCCc2ccccc2)n1` | -6.685 | 0.5291 |
| `[H][C@@]12COC[C@]1(CNS(C)(=O)=O)CN(C(=O)N1CCCC1)C2` | -10.18 | - |
| `CN1C(=O)C(c2cccnc2)CC12CCN(C(=O)c1cccn1C)CC2` (stereo not drawn) | 3.632 | -0.5405 |
| `COc1ccc(C2CCCN2Cc2cnn(C)c2)cc1` (stereo not drawn) | -8.652 | 4.741 |

For reference, 5 entries once more:

structure	Toxoplasma	TcHisRS
CNS(=O)(=O)c1ccc(F)c(C(=O)NCc2ccnc(OC)c2)c1	9.879	-3.097
Cn1cc(C[C@H]2[C@H](N3CCOCC3)CCN2C(=O)c2ccoc2)cn1	7.134	0
COC(=O)CCNC(=O)c1ccoc1CN1c2ccccc2CC1C (stereo not drawn)	-30.4	6.612
[H][C@@]12CCN(Cc3nc(C)cs3)C[C@@]1([H])O[C@H](c1nc(C)no1)C2	17.6	-
COc1ccc(C2CCCN2Cc2cnn(C)c2)cc1 (stereo not drawn)	-8.652	4.741

The values are deposited in ChEMBL (CHEMBL3988442, “University of Dundee, Small-Polar-MMV Screening Library” (2021)).